Measurements from patent US20260152569A1, “ANTI-GPC1 MONOCLONAL ANTIBODY, THERAPEUTIC AND DIAGNOSTIC USES THEREOF” (CENTRO DI RIFERIMENTO ONCOLOGICO DI AVIANO, priority 2022, published 2026).
No constants are given. Whether binding was seen depends on the method and setting. Some binding calls cover weakened binding; strength is not graded here.

Molecular target: T1, GPC1 (antigen in ELISA) (UniProt P35052)
T1 sequence (looked up): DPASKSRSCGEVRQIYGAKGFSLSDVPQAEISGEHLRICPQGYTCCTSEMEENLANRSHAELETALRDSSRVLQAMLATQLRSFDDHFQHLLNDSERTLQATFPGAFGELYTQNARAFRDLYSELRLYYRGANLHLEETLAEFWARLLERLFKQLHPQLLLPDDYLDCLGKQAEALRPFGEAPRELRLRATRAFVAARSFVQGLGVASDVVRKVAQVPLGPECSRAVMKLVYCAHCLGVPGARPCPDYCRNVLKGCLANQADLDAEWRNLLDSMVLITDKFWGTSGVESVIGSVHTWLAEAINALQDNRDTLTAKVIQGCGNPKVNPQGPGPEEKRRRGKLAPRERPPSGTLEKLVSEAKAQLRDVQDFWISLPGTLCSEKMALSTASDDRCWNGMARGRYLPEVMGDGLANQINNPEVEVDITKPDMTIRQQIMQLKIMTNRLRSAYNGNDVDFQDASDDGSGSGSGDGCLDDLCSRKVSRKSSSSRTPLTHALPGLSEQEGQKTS
Test: ELISA

B1: anti-GPC1 C (antibody, V domains shown)
VH: QVQLQQSDAELVKPGASVKISCKASGYTFTDHAIHWVKQKPEQGLEWIGYISPGNGDIKYNEKFKGKATLTADKSSSTAYMQLNSLTSEDSAVYFCKRYAYWGQGTLVTVSA
VL: DVLMTQTPLSLPVSLGDQASISCRSSQSIVHSNGNTYLEWYLQKPGQSPKLLIYKVSNRFSGVPDRFSGSGSGTDFTLKISRVEAEDLGVYYCFQGSHVPWTFGGGTKLEIKP
binding: binds
